Experimental data: US20260250420A1
Results are given in words; binding and its absence hold for the method and conditions named. Some results given as binding are weak or reduced against the parent protein; the word gives no strength.

By UniProt entry, the sequences of proteins in these tests, tags left out. Where a name states a change or a piece, a line headed by the entry shows the natural chain unless it says otherwise. Chains listed by the source or under a name are the forms on record and can include a tag or linker. Residues count along the entry.
UniProt Q13308, residues 31-1070: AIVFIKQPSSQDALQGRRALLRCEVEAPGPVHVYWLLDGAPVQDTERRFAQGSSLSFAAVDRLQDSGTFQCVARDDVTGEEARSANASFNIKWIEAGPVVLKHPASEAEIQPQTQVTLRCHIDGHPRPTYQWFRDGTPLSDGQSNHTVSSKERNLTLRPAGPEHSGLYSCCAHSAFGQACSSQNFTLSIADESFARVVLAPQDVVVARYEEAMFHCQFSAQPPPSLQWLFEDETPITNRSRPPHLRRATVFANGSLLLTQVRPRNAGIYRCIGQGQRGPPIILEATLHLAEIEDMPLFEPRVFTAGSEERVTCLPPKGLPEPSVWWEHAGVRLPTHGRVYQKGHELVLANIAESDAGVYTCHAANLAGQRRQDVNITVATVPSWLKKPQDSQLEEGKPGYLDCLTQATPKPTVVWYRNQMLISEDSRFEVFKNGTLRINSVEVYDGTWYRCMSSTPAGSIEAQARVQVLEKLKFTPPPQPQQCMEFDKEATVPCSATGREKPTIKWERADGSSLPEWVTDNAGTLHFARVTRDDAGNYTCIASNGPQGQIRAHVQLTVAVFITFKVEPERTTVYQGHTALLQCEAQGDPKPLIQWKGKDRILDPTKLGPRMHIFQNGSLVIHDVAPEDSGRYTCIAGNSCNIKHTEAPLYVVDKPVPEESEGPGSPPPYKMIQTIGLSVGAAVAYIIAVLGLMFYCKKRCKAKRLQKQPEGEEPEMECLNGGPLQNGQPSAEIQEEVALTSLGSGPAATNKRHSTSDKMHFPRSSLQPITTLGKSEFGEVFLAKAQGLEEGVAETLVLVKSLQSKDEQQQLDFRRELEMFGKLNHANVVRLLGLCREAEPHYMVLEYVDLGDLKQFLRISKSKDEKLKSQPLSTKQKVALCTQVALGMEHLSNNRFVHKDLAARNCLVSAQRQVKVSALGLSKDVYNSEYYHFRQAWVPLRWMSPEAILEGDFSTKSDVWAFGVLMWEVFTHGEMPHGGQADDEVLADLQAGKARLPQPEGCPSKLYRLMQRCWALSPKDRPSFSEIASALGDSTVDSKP
human PTK7 protein (extracellular sequence of human PTK7 with C-terminal 6×His tag) (Q13308, form named): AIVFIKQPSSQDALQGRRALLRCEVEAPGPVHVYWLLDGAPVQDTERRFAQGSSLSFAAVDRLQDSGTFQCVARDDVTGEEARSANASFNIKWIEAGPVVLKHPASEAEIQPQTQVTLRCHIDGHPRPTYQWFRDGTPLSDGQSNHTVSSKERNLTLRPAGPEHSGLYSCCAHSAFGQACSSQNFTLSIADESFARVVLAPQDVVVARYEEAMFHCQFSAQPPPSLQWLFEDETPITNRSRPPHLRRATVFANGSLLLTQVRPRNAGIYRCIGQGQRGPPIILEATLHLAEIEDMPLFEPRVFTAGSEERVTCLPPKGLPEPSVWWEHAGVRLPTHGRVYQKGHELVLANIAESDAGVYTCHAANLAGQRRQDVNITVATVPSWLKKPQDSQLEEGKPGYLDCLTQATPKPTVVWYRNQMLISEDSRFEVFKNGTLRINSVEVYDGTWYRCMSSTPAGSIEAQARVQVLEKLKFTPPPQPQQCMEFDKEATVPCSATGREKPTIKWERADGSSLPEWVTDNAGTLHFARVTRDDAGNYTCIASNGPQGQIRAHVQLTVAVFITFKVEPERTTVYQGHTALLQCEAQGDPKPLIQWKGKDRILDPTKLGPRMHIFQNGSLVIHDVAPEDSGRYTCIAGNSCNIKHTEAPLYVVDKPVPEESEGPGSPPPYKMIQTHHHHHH

Tests used:
[1] = target: human PTK7 protein (extracellular sequence of human PTK7 with C-terminal 6×His tag) (human) (UniProt Q13308); assay: ELISA, coated human PTK7-His protein
[2] = target: human PTK7 on cells (tumor cells endogenously expressing PTK7; CHO-hPTK7, CHO-S-hPTK7 and 293T-hPTK7 overexpression cells) (human) (UniProt Q13308); assay: flow cytometry on H1299 cells, PE-labelled secondary antibody

| binding [1] | binding [2] | Binder |
| --- | --- | --- |
| binds | binds | 64A10-CH (anti-human PTK7 chimeric antibody of 64A10) (antibody, human IgG1, kappa, V domains shown) VH: QVQLKESGPVLVAPSQSLSITCTVSGFSLTSYGVYWVRQPPGKGPEWLGVIWTSGNTNYNSALMSRLSISKDNSKSQVFLKMNSLQTDDTAMYYCVKHDGGNYVGVMNYWGQGTSVTVSS VL: DIQMTQSPATLSVTPGDRVSLSCRASQSISDYLHWYQQKSQESPRLLIKYASQSISGIPSRFSGSGSGSDFTLSINSVEPEDVGVYYCQNGHSFPPTFGGGTKLEIKR |
| binds | binds | 101A6-CH (anti-human PTK7 chimeric antibody of 101A6) (antibody, human IgG1, kappa, V domains shown) VH: EVKLVESGGGLVQPGGSLSLSCAASGFTFTDYYLSWVRQPPGKALEWLALIRNKANGYTTEYSASVKGRFTISRDSSQSILYLQMDALRAEDSATYYCARDTLAAYWGQGTSVTVSS VL: DIVMTQSHKFMSTSVGDRVSFTCKASQDVGSAVIWYQQKPGQSPKLLIYWASTRHTGVPDRFTGSGSGTDFTLTISNVQSEDLADYFCQQYSSYPLTFGAGTKLEIKR |
